According to article PMC9887753:
Results are given in words; binding and its absence hold for the method and conditions named. In cells and extracts the contact can be indirect. A yes stands for co-enrichment or nearness to the bait. Other partners may have been found. Tags and fused reporters may be left off the sequences shown.

Target: T1, FLAG-tagged mouse perilipin 5 (Plin5), transgene of MHC-Plin5 mice (mouse) (UniProt Q8BVZ1)
T1 sequence: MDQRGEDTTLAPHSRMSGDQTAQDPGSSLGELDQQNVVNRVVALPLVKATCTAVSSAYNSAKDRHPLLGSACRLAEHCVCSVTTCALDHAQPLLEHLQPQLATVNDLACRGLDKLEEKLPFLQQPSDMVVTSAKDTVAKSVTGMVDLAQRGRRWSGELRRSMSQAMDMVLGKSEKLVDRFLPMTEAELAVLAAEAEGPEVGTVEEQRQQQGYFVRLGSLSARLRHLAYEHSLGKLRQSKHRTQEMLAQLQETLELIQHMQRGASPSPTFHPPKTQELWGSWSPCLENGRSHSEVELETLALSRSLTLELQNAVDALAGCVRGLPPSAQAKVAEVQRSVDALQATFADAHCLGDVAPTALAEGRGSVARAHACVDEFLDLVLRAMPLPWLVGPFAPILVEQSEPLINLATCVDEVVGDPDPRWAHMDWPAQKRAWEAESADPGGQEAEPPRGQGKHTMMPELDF
Assay: affinity purification with mass spectrometry; FLAG immunoprecipitation (Pierce Anti-FLAG Magnetic Agarose, overnight 4°C) from lysates of primary MHC-Plin5 and WT cardiomyocytes (1% Triton X-100, 150 mM NaCl, pH 7.4); TMT10plex nano-LC-MS/MS

binding: binds
Substance: sarcoplasmic/endoplasmic reticulum Ca2+ ATPase 2 (SERCA2) (from UniProt O55143-2)
